Experimental data as given in publication PMC11609979 (Chemical Science, 2024).

System: A549 cells
Test: Cell cytotoxicity
Assay type: cell-based
Conditions: read-out: IC50 (±St. Dev.) Dark, no irradiation (dark), 72 h after treatment, n = 3
Method in brief: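 A549 cells were exposed to test compound and viability was read 72 h after treatment. Dark samples were protected from light. IC50 was taken from dose–response curves, n = 3.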

N.N.[Cl][Pt][Cl] [Cisplatin]
IC50: 8.1 µM
